These are yes or no findings as the source states them, for the method shown. Binding seen in cells or lysates may run through a third protein. Some entries that bind do so weakly or less than the wild type. Where a sequence is shown, tags or fusion partners need not be part of it.

Protein sequences, listed by entry. Tags and fused reporters are not part of them.
UniProt P0DMV8: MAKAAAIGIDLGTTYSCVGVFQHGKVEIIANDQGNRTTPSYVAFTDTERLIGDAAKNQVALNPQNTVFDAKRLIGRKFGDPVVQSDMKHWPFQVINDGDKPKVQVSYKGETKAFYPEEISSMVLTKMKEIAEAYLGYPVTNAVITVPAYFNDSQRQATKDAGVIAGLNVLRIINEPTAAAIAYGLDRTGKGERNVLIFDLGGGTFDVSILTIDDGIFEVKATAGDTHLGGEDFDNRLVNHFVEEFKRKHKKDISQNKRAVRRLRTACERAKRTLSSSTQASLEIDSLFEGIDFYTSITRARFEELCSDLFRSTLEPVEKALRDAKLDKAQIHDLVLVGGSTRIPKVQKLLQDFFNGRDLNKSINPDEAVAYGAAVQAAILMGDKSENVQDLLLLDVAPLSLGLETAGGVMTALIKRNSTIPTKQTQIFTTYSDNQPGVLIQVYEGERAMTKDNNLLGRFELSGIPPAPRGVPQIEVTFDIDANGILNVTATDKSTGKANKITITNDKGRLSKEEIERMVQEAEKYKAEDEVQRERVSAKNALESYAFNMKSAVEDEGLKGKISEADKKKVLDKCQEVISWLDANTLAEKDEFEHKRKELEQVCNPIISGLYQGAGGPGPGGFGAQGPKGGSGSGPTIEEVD

The text below walks through data of publication PMC9101110.

The assay deals with HSPA1A, N-terminal NanoLuc fusion (UniProt P0DMV8). In words: FRET or BRET; NanoBRET in cotransfected HEK293 cells, white 96-well plates; NanoLuc fusions of PSD95 or HSPA1A (donor, 460 nm) and HaloTag fusions of ARC (acceptor, with or without NanoBRET HaloTag 618 ligand, 620 nm); BRET as the ratio 620/460 nm.

B1: activity-regulated cytoskeleton-associated protein (ARC), wild type, N-terminal HaloTag fusion (protein, UniProt Q7LC44 1-396)
chain: MELDHRTSGGLHAYPGPRGGQVAKPNVILQIGKCRAEMLEHVRRTHRHLLAEVSKQVERELKGLHRSVGKLESNLDGYVPTSDSQRWKKSIKACLCRCQETIANLERWVKREMHVWREVFYRLERWADRLESTGGKYPVGSESARHTVSVGVGGPESYCHEADGYDYTVSPYAITPPPAAGELPGQEPAEAQQYQPWVPGEDGQPSPGVDTQIFEDPREFLSHLEEYLRQVGGSEEYWLSQIQNHMNGPAKKWWEFKQGSVKNWVEFKKEFLQYSEGTLSREAIQRELDLPQKQGEPLDQFLWRKRDLYQTLYVDADEEEIIQYVVGTLQPKLKRFLRHPLPKTLEQLIQRGMEVQDDLEQAAEPAGPHLPVEDEAETLTPAPNSESVASDRTQPE
For the molecule B1, the binding result was “binds”.
